In the supplement of paper PMC3334620:
Over roughly 33,000 sequences, “E-score (-0.5 to 0.5)” has its median near -0.016; the highest 2% begin near 0.3. Some of the results follow.

Target: T1, Yer184c (UniProt P39961)
T1 sequence: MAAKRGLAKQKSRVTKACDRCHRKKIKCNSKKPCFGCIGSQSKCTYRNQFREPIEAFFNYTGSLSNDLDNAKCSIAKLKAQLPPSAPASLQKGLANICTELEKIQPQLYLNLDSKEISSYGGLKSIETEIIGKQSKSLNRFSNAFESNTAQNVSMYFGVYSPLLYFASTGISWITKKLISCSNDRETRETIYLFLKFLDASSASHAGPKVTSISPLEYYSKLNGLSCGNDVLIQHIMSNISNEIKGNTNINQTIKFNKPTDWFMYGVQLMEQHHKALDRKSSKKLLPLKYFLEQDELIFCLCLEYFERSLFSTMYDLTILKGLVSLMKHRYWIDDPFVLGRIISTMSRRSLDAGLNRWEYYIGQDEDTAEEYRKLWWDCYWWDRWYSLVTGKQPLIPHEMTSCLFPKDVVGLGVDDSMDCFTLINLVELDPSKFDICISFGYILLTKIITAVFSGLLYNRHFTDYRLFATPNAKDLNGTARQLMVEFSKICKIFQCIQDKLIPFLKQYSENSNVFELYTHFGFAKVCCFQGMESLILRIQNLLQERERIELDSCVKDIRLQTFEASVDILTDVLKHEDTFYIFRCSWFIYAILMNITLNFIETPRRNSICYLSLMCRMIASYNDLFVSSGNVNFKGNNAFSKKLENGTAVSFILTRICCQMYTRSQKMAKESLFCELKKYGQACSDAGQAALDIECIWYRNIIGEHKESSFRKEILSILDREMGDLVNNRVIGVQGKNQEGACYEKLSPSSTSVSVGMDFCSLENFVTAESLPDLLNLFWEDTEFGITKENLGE
Assay: PBM E-score (8-mer binding enrichment) (E-score (-0.5 to 0.5)); higher = stronger / more preferred TF binding
Details: protein concentration: 100 nM; construct: GST-full length
Procedure, shortened: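 Detection of bound protein used fluorescent anti-GST, with scans normalised by masliner. The proteins were GST-tagged yeast transcription factors applied at about 100-200 nM to universal all-10-mer Agilent arrays made double-stranded by primer extension. Each ungapped eight-base word, pooled with its reverse complement, was scored with an E-score from the Universal PBM Analysis Suite.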

Row | Sequence | PBM E-score
1 | CCAGACCA | -0.0635
2 | CAACTGGA | -0.174
3 | GATGCGCC | -0.0605
4 | AAGAATTG | 0.0346
5 | CTATGCAC | -0.206
6 | GACACACC | -0.095
7 | TGAGCCAA | -0.247
8 | ATGGGAGC | -0.111
9 | TAGCCATA | -0.109
10 | ACGCTAGC | -0.137
11 | AGTGCATA | -0.0583
12 | ATCTCCCC | -0.294
13 | ACAAATTA | 0.205
14 | ATGGGTCA | -0.192
15 | TGACACAA | 0.0374
16 | CCATCCCA | 0.00331
17 | AATGTGTC | 0.0951
18 | CGTTCTCA | -0.123
19 | CCCTTAGA | -0.25
20 | CAACCATC | -0.149
21 | GGTTCGAC | -0.153
22 | ACTACGCA | -0.102

Row | Sequence | PBM E-score
23 | AACGGGCC | -0.0595
24 | CAGAGAGC | -0.088
25 | AAAGAGTC | -0.129
26 | ATTTACAG | 0.146
27 | AAGTGTCT | -0.0612
28 | ACAGATTC | 0.163
29 | GCACCGCA | -0.254
30 | AGGTGAAG | -0.032
31 | TGTCGACA | -0.0666
32 | GTACATAA | 0.134
33 | GCCGCCCC | -0.0231
34 | ATCGGCAA | 0.246
35 | ACTGCAGC | -0.196
36 | ACCGCCAC | -0.128
37 | AAGGAATT | 0.0261
38 | CATCAGCC | 0.00044
39 | GATCAAGA | 0.17
40 | AATGAAAC | 0.141
41 | AACGCGGG | 0.197
42 | CACCGAGG | 0.089
43 | ACCTCCTG | -0.292
44 | AAACTCGG | 0.255

Exported as tab-separated lines: part of the list above.
Row	Sequence	PBM E-score
23	AACGGGCC	-0.0595
24	CAGAGAGC	-0.088
25	AAAGAGTC	-0.129
26	ATTTACAG	0.146
27	AAGTGTCT	-0.0612
28	ACAGATTC	0.163
29	GCACCGCA	-0.254
30	AGGTGAAG	-0.032
31	TGTCGACA	-0.0666
33	GCCGCCCC	-0.0231
34	ATCGGCAA	0.246
35	ACTGCAGC	-0.196
36	ACCGCCAC	-0.128
37	AAGGAATT	0.0261
38	CATCAGCC	0.00044
41	AACGCGGG	0.197
42	CACCGAGG	0.089
43	ACCTCCTG	-0.292
44	AAACTCGG	0.255

More records follow:

Row | Sequence | PBM E-score
45 | ACCCTGGG | -0.106
46 | TACCTTCA | 0.0985
47 | AGACGCCA | -0.068
48 | GCGATCCA | -0.139
49 | CCAGCCAG | -0.244
50 | AGATATTA | 0.0953
51 | TAAGAGTA | 0.0956
52 | CTGCATTA | -0.0183
53 | CCAGAGGC | -0.254
54 | CATGATCA | 0.0702
55 | AGGCTATA | 0.00385
56 | GGACTGGA | -0.0699
57 | ACCTGGGG | -0.436
58 | CCGCTTAA | 0.122
59 | CGACGCCC | 0.00224
60 | AATAGAGA | -0.117
61 | CAAGCGAG | 0.0234
62 | CATCCCCA | -0.335
63 | GCATAGAA | 0.218
64 | ACGAACGG | 0.169
65 | ACGTCTCG | 0.0499
66 | GTGGAGTA | -0.0641

2 neighbouring records already listed, for reference:
Row | Sequence | PBM E-score
52 | CTGCATTA | -0.0183
53 | CCAGAGGC | -0.254

Following part

Row | Sequence | PBM E-score
67 | CATTAATA | 0.263
68 | AACCGTGG | -0.0525
69 | ACCCAGTA | -0.186
70 | CCGCGCGC | 0.154
71 | CTGCTGCC | -0.155
72 | GGTAGACA | -0.0672
73 | ATCTCTTA | 0.0605
74 | AGAGTCCC | -0.23
75 | ATGTGCAC | -0.0982
76 | AAGCAGCT | 0.0387
77 | ACGAGGCT | -0.037
78 | CTAATGGA | -0.095
79 | CTATATTC | -0.0128
80 | CCCCGATC | -0.0888
81 | GGGCATGA | -0.275
82 | AACGAGGT | -0.149
83 | GTGTTTTA | 0.0955
84 | CCTCCGGA | 0.337
85 | AACACCAG | -0.16
86 | CCGAGCAG | 0.17
